{"source": "PubChem BioAssay AID1508597 (Cure First, 2020)", "test": "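Survival screen with siRNA in ovarian cancer cells derived from patients, with or without rucaparib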 (primary screen)", "system": "human ovarian carcinoma lines grown from tumours: OCI-P5x (papillary serous) and OCI-C5x (clear cell)", "knock-down reagent": "siRNA pool against human genes, 1.25 pmol siRNA per well", "time to read-out": "72 h or 96 h, depending on the cell culture", "challenge": "rucaparib 20 µM (about IC30) or vehicle, present until read-out", "rucaparib or vehicle": "Vehicle", "cell line": "OCI-P5x (serous)", "detection": "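ATP luminescence measured at 72 or 96 h according to the culture, then normalised and expressed as percent viability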", "reading the numbers": "viability, normalised: higher = more viable cells remaining", "rule for the call": "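Active when normalised viability falls below 80 percent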", "meaning of the calls": "active = viability under 80%; inactive = viability 80% or more", "note": "Shown is a random part of the about 2,100 reagents, in one setting of the screen. 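Calls flag viability under 80% in either arm, not effects specific to rucaparib; the reference for percent is not stated.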 Unmarked entries are inactive. The record does not give: the 100% reference."}
{"gene": "UNG", "technical replicate": "1", "viability, normalised (%)": 91.4}
{"gene": "UNG", "technical replicate": "2", "viability, normalised (%)": 97}
{"gene": "UNG", "technical replicate": "3", "viability, normalised (%)": 85.5}
{"gene": "PTK6", "technical replicate": "1", "viability, normalised (%)": "59.7 (active)"}
{"gene": "PTK6", "technical replicate": "2", "viability, normalised (%)": "49.9 (active)"}
{"gene": "PTK6", "technical replicate": "3", "viability, normalised (%)": "54.2 (active)"}

2 entries from above in another layout.
| gene | technical replicate | viability, normalised (%) |
| --- | --- | --- |
| PTK6 | 1 | 59.7 (active) |
| PTK6 | 2 | 49.9 (active) |

More reagents:
{"gene": "GRK7", "technical replicate": "1", "viability, normalised (%)": "73.7 (active)"}
{"gene": "GRK7", "technical replicate": "2", "viability, normalised (%)": "65.1 (active)"}
{"gene": "GRK7", "technical replicate": "3", "viability, normalised (%)": "72.8 (active)"}
{"gene": "PHF12", "technical replicate": "1", "viability, normalised (%)": "64.8 (active)"}
{"gene": "PHF12", "technical replicate": "2", "viability, normalised (%)": "57.4 (active)"}
{"gene": "PHF12", "technical replicate": "3", "viability, normalised (%)": "61.5 (active)"}
